Test results: patent US20210205286A1
No constants are given. Whether binding was seen depends on the method and setting. For some assays here: Binding seen in cells or lysates may run through a third protein. Some binding calls cover weakened binding; strength is not graded here. For some assays here: Where a sequence is shown, tags or fusion partners need not be part of it. One block for each substance: values may come before it.

Chains of the proteins cited; added tags and fusions are not shown. Lines headed by an entry give the natural chain unless they say otherwise; changes in a name come on top. A line that says so, or that is headed by a name, gives the form on record, which may keep a tag or linker. Residues count along the entry.
UniProt P13473, residues 29-410: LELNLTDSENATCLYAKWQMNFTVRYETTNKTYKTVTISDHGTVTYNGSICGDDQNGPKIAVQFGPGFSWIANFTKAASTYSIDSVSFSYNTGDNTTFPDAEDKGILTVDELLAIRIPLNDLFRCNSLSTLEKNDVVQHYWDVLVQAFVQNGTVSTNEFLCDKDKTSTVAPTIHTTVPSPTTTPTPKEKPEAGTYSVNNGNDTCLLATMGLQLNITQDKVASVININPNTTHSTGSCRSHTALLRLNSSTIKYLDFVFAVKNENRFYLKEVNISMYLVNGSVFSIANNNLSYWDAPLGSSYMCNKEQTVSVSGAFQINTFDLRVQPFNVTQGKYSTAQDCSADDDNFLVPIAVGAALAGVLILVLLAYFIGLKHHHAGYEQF
UniProt Q13131: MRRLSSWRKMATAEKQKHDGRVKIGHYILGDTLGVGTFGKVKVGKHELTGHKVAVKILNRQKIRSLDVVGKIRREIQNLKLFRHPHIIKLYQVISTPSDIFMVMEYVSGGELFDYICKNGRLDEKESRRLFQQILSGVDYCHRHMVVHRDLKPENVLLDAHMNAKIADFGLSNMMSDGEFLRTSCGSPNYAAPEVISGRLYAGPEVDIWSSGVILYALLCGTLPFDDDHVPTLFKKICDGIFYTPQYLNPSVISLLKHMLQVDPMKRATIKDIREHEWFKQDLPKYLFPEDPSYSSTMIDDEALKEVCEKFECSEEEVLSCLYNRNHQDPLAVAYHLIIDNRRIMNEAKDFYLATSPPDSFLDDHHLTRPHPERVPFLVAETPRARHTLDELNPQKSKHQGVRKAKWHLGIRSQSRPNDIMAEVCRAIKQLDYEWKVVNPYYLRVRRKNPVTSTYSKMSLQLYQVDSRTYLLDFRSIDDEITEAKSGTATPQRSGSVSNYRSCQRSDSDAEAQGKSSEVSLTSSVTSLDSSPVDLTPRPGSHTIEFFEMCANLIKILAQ
mCherry-Gal9 (O00182, form named): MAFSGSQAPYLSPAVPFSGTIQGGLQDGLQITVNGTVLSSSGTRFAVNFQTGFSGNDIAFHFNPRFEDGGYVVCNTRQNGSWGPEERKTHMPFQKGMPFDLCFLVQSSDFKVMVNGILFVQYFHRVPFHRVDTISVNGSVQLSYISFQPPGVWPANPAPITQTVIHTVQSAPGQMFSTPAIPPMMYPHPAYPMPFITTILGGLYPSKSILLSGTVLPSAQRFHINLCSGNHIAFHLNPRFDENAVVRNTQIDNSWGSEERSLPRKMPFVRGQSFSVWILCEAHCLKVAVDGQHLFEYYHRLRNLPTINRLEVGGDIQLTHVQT

What was measured:
[1] = biological target: LAMP2 (endogenous) (UniProt P13473); assay: APEX2-Gal9 proximity biotinylation, avidin bead enrichment, immunoblot (FIG. 2A)
[2] = biological target: T1, LAMP1 (endogenous) (UniProt P11279); assay: as above
T1 sequence (looked up): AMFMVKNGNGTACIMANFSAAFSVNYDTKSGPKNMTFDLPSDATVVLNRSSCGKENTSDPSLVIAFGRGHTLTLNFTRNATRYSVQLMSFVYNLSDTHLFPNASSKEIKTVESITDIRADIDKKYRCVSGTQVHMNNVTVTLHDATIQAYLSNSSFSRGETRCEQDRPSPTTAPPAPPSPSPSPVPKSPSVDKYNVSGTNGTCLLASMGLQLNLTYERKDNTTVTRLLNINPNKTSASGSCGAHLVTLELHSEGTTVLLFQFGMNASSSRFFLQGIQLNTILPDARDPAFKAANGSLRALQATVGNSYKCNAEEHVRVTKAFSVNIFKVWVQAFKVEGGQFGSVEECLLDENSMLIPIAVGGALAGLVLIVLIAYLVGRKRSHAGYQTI

[3] = biological target: AMPKα1 (endogenous) (UniProt Q13131); assay: APEX2-Gal9 proximity biotinylation, avidin bead enrichment, immunoblot (FIG. S4A)
[4] = biological target: T2, GFP-TAK1 (UniProt O43318); assay: co-IP, anti-GFP IP of GFP-TAK1, blot with anti-FLAG, HEK293T, LLOMe (FIG. 4B)
T2 sequence (looked up): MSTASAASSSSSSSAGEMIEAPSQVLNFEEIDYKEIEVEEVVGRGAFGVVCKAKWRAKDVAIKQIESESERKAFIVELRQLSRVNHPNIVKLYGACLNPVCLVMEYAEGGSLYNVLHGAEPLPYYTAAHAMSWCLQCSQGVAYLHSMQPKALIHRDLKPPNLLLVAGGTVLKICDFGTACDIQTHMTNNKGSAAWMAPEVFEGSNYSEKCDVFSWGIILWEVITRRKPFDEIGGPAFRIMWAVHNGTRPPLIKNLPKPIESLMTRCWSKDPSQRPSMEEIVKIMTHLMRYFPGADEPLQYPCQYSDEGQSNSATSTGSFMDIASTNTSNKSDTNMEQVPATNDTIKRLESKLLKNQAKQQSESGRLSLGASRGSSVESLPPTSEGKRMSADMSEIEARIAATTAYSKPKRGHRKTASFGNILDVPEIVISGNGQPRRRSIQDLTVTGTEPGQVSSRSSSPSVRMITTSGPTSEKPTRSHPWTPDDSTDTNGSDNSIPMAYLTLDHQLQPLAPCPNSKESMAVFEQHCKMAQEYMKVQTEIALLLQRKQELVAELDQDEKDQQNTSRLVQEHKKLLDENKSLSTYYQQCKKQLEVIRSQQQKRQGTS

[5] = biological target: T2, GFP-TAK1; assay: co-IP, anti-GFP IP, blot with anti-mCherry, HeLa Flp-In Gal9^Tet-ON cells (FIG. S4B)

binding [1]: binds
binding [2]: binds
binding [3]: binds
Substance: APEX2-myc-Gal9 (from UniProt O00182 1-323)

binding [4]: binds
Substance: FLAG-Gal9^WT (from UniProt O00182 1-323)

binding [5]: binds
Substance: mCherry-Gal9 (from UniProt O00182 1-323)
